Experimental data: PubChem BioAssay AID602196 (INSERM, 2012)
Assay: 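Knock-downs that protect lung cancer cells from cisplatin or sensitise them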. Cell system: human A549 lung cancer cells. Reagent: siRNA pair against human genes. Duration: 48 h transfection before cisplatin; time from cisplatin to read-out not stated. Conditions: cisplatin at a dose killing half of control-siRNA cells; exact dose and duration not given. Measurement: 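Cisplatin cell death as a shift from the 50% death seen with control siRNA; siRNAs toxic or growth-blocking alone scored 0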. Scale: two-siRNA summed score (-2 to +2): higher = both siRNAs protect from cisplatin killing; -2 means both sensitise; mean protection from cisplatin (shift in death): higher = protection from cisplatin killing. Hit rule: 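Each siRNA scores 0 if harmful alone by LDH or WST-1, otherwise +1 if it reduces and -1 if it increases cisplatin killing; a gene is active when both siRNAs agree (sum +2 or -2)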. Meaning of the calls: active = both siRNAs shift cisplatin killing the same way; inactive = no consistent shift, or siRNA harmful alone.
Here is one part, drawn at random, of about 23,000 reagents tested. Over the whole deposit, 455 (2%) were called active. 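Active includes both protection and sensitisation; some change values fall well beyond the stated -50 to +50 range.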 Further read-outs or replicates are left out here. Reagent sequences are not shown. Not stated in the record: the amount of reagent.

After knock-down of RPUSD4 (RNA pseudouridine synthase D4), the screen gave two-siRNA summed score (-2 to +2) = 0; mean protection from cisplatin (shift in death) (%) = 0.3; inactive.
With knock-down of MFSD12 (major facilitator superfamily domain containing 12), the screen gave two-siRNA summed score (-2 to +2) = 0; mean protection from cisplatin (shift in death) (%) = -1.5; inactive.
For CDIP1 (cell death inducing p53 target 1) the deposit lists two-siRNA summed score (-2 to +2) = 1; mean protection from cisplatin (shift in death) (%) = 5.9; inactive.
APOBEC2 (apolipoprotein B mRNA editing enzyme catalytic subunit 2) scored two-siRNA summed score (-2 to +2) = 1; mean protection from cisplatin (shift in death) (%) = 13.8; inactive.
ZP1 (zona pellucida glycoprotein 1) gave two-siRNA summed score (-2 to +2) = 0; mean protection from cisplatin (shift in death) (%) = -0.3; inactive.
Against SPAG17 (sperm associated antigen 17), the values are two-siRNA summed score (-2 to +2) = 0; mean protection from cisplatin (shift in death) (%) = 6; inactive.
LOC390865 showed two-siRNA summed score (-2 to +2) = 0; mean protection from cisplatin (shift in death) (%) = -1.6; inactive.
After knock-down of CLNK (cytokine dependent hematopoietic cell linker), the screen gave two-siRNA summed score (-2 to +2) = -1; mean protection from cisplatin (shift in death) (%) = -2.8; inactive.

Single entries from the entries so far.
CDIP1 (cell death inducing p53 target 1), mean protection from cisplatin (shift in death) (%): 5.9
CLNK (cytokine dependent hematopoietic cell linker), mean protection from cisplatin (shift in death) (%) → -2.8

The results go on:
For SLC25A23, the entry reads two-siRNA summed score (-2 to +2) = 1; mean protection from cisplatin (shift in death) (%) = 17.2; inactive.
Knock-down of ACP2 (acid phosphatase 2, lysosomal) resulted in: two-siRNA summed score (-2 to +2) = 1; mean protection from cisplatin (shift in death) (%) = 5.5; inactive.
CMTM1 (CKLF like MARVEL transmembrane domain containing 1) showed two-siRNA summed score (-2 to +2) = 0; mean protection from cisplatin (shift in death) (%) = 2.7; inactive.
GCC2 (GRIP and coiled-coil domain containing 2) scored two-siRNA summed score (-2 to +2) = 0; mean protection from cisplatin (shift in death) (%) = 6.7; inactive.
